Data from PMC5536908.
No constants are given. Whether binding was seen depends on the method and setting. Binding seen in cells or lysates may run through a third protein. A yes stands for co-enrichment or nearness to the bait. Other partners may have been found. Sequences can lack the tags named with a protein.

Sequences of proteins named here, by UniProt entry; tags and fusion partners are left off.
UniProt P54647: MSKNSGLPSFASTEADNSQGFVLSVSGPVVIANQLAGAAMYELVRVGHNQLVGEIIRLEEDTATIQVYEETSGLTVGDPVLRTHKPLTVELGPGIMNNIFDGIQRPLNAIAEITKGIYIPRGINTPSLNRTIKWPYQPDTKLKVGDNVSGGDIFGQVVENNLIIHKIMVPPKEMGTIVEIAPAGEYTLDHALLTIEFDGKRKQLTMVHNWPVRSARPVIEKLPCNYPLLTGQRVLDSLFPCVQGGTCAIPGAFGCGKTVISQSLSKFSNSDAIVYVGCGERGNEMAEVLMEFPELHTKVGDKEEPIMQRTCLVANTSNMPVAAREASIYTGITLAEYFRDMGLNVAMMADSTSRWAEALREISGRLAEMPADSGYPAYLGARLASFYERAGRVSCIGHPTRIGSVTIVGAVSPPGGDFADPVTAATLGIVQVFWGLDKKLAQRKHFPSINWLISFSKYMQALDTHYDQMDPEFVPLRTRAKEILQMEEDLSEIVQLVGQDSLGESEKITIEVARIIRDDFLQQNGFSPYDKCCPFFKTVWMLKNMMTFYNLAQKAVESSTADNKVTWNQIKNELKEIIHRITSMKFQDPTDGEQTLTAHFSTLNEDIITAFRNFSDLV

T1: GPHR-GFP (Dictyostelium discoideum Golgi pH regulator, GFP-tagged) (D. discoideum) (UniProt Q54QM5)
T1 sequence: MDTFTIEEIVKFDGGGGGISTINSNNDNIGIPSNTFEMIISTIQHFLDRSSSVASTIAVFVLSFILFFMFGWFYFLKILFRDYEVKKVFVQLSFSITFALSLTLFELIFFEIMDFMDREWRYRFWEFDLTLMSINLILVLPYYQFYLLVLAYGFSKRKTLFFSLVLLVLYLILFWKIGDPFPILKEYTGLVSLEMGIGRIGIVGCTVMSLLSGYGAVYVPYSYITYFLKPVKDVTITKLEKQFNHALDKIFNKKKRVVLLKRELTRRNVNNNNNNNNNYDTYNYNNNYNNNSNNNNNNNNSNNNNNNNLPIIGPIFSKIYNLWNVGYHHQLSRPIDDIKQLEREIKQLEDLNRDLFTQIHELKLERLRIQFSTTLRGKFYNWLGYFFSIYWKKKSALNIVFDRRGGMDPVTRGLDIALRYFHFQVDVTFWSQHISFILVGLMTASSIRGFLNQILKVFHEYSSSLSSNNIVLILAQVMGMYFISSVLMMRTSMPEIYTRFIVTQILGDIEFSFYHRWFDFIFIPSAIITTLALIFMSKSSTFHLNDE

B1: V-ATPase subunit M (protein, UniProt Q54E04 1-815)
chain: MSFLRPSIWRSSPMQMVQLFVQIEAAHDTVDELGKLGLIQFLDDNEHVNLFQRNFVNEVKRCDDMEKKLKFFEDQVKKEPKLQKLLPDNMLSVVDDDSQMDELEGRFDELESELKQVNANQETLQRNYNELIQLRHVLTKDSVFFQENPNLIEGEGHEHSARSPLLAEDQHVSEVAKQGVKLGFITGVMNTDKMPQFQRSLWRTTRGNNYVKDARIEEEIIDPQTGEETAKTVFIVFFQGERLQQKIKKICESFGANIYDCPDNSFERSNLLQKVTVRITDLYEVLQRSKDHKRQTLAGIVPRLYSWKKKVLLEKSIYHTMNLFDYDVGRKCLIAKGWTPKDKIEEIQLALRTATTRSGALVPSVLSIIKTEGSPPTHFETNKYTSSFQEIVNAYGIAHYREVNPAVLTIVTFPFLFGVMFGDVGHGALLLLSALGLISLEKKLAGKKLNELIQMPFDGRYVLFLMSLFSIYVGFIYNECFSIPMNIFGSQYNLNSTTGLYTYQHTDRVYPVGVDPLWKGAPNELVYYNSFKMKLSIIFGVVQMSVGICFSLLNYLNQKGPIKIVNILTQFVPQMIFLWSIFGYMSVLIILKWVVPYRSFEVDKVDPPFILPTIIAMFLSPGGTPDVVFFSGQGAVQTALLFLALISIPVMLVIKPLFMKRFHFQEVERKKLGHHEEEHDDEALYTGHHGEEFEMGEVFVHQVIHTIEFVLGAVSNTASYLRLWALSLAHSELSSVFWERILIGQVERGNPFLAFVGFGAWLGASVAVLLLMESLSAFLHALRLHWVEFQNKFYIGDGVRFIPYSATRILSEDDE

Target: T1, GPHR-GFP (Dictyostelium discoideum Golgi pH regulator, GFP-tagged) (D. discoideum)
Test: affinity purification with mass spectrometry; GPHR-GFP (control: GFP) immunoprecipitated from D. discoideum cell lysates with polyclonal anti-GFP antibodies on Protein A-Sepharose; SDS-PAGE, Coomassie-stained bands cut out, LCMS

Row | binding | Molecule
1 | binds | V-ATPase subunit D (D. discoideum (endogenous))
2 | binds | V-ATPase subunit A (from UniProt P54647 1-618)
3 | binds | B1
